Results reported in PubChem BioAssay AID445 (National Center for Advancing Translational Sciences (NCATS), 2006).
This is one part of the list. The main result of the screen is listed elsewhere. These columns were measured beside it and carry no call. Compounds called inactive in the main read-out are mostly missing here. Potencies come from curve fits of mixed quality, noted in brackets.

assay: IkB Signaling; conditions: ABC-DLBCL IkBa-CBG/CBR dual luciferase ratio (green luciferase fused to IkBa over red control in OCI-Ly3 lymphoma cells), 4 h; measured here: control luc red channel unless noted
Method in brief: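 In this assay, an IκBα–CBG68 fusion accumulates when IKK-driven degradation is blocked; native CBR normalizes for cell number. OCI-Ly3 cells were treated 4 h with compound and doxycycline, then green and red light read after Chroma-Glo addition.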

Row | Compound | AC50
1 | CCC1CCCCN1C(=O)CSc1nc2c([nH]c3ccccc32)c(=O)n1-c1cccc(OC)c1 (configuration not stated) | 39.8 µM [falling, partial curve]
2 | O=C(COc1ccccc1Cl)Nc1ccc(Cl)c(-c2nc3ccccc3o2)c1 | 15.8 µM [rising, partial curve]
3 | O=C(O)c1ccc2nc(-c3cc4cc(F)ccc4oc3=O)[nH]c2c1 | 0.0631 µM [falling, full curve]
4 | Cn1ccc2c(OCC(=O)NCc3ccccc3Cl)cccc2c1=O | 39.8 µM [rising, single point] [measured here: IkB-luc green channel]
5 | CCc1ccc(CNC(=O)c2ccc3nc(C(C)C)oc3c2)cc1 | 10 µM [falling, partial curve]
6 | COc1ccc(OC(C)c2nc3ccccc3[nH]2)cc1 (configuration not stated) | 15.8 µM [falling, partial curve]
7 | O=C(Nc1ccc2oc(-c3cccnc3)nc2c1)c1ccc(-c2ccccc2)o1 | 7.94 µM [falling, full curve]
8 | O=C(COC(=O)C1CCN(S(=O)(=O)c2cccs2)CC1)c1cc2ccccc2o1 | 7.94 µM [falling, partial curve]
9 | CCn1c(CCNC(=O)c2cccs2)nnc1SCC(=O)c1ccc(OC)cc1 | 12.6 µM [falling, partial curve]
10 | COc1ccc(-c2nn(CC(=O)Nc3ccccc3F)c3c2cnc2ccc(F)cc23)cc1 | 0.0398 µM [rising, full curve, poor fit]
11 | O=C(Nc1ccc(N2CCN(C(=O)c3ccc(Cl)cc3)CC2)cc1)c1ccc(Br)o1 | 10 µM [falling, partial curve]
12 | Cc1ccc(-c2nc(S(=O)(=O)c3ccc(C)cc3)c(N3CCN(c4ccccc4)CC3)o2)cc1 | 10 µM [rising, partial curve]
13 | CCOc1ccc(C2C(=O)N(C3CCCCCC3)CC(=O)N2CCc2ccccc2)cc1OC (configuration not stated) | 1 µM [rising, partial curve]
14 | CCOc1ccc(C(=O)Nc2ccc(S(=O)(=O)N3CCCCC3c3cccnc3)cc2)cc1 (configuration not stated) | 25.1 µM [falling, partial curve]
15 | CCc1cccc(C)c1NC(=O)Cn1c(=O)cc(C(F)(F)F)c2c(C)nn(C)c21 | 10 µM [falling, partial curve]
16 | Cc1ccc(C)c(S(=O)(=O)NCC(c2ccco2)S(=O)(=O)c2ccc(F)cc2)c1 (configuration not stated) | 0.02 µM [rising, full curve, poor fit]
17 | Cc1ccc(N2CCN(C(=O)c3ccc4c(Cl)c5c(nc4c3)CCCC5)CC2)c(C)c1 | 10 µM [falling, partial curve]
18 | O=C(Nc1ccc(F)cc1F)c1c2c(nc3ccccc13)C(=O)N(C1CCCCC1)C2 | 3.16 µM [falling, single point]
19 | Cc1noc(C)c1S(=O)(=O)N(CC(=O)NCc1ccccc1Cl)c1ccc(C(C)C)cc1 | 7.94 µM [falling, partial curve]
20 | O=C(NCc1cccs1)C1CCN(C(=O)N2CCOc3ccccc32)CC1 | 0.398 µM [rising, full curve]
21 | O=C(Nc1c(-c2ccccc2)nc2ccccn12)c1ccc(Br)cc1 | 15.8 µM [falling, partial curve, poor fit]

Shown as comma-separated lines: 5 of the compounds above
Row,Compound,AC50
7,O=C(Nc1ccc2oc(-c3cccnc3)nc2c1)c1ccc(-c2ccccc2)o1,"7.94 µM [falling, full curve]"
8,O=C(COC(=O)C1CCN(S(=O)(=O)c2cccs2)CC1)c1cc2ccccc2o1,"7.94 µM [falling, partial curve]"
9,CCn1c(CCNC(=O)c2cccs2)nnc1SCC(=O)c1ccc(OC)cc1,"12.6 µM [falling, partial curve]"
10,COc1ccc(-c2nn(CC(=O)Nc3ccccc3F)c3c2cnc2ccc(F)cc23)cc1,"0.0398 µM [rising, full curve, poor fit]"
11,O=C(Nc1ccc(N2CCN(C(=O)c3ccc(Cl)cc3)CC2)cc1)c1ccc(Br)o1,"10 µM [falling, partial curve]"

Going on with the list.

Row | Compound | AC50
22 | CC(C)(C)c1csc(NC2=NS(=O)(=O)c3ccccc32)n1 | 39.8 µM [falling, single point]
23 | O=C(CSc1nc2c([nH]c3ccccc32)c(=O)n1-c1ccccc1)c1ccccc1 | 1 µM [rising, full curve]
24 | COc1ccccc1NC(=O)C1CCN(S(=O)(=O)c2ccc3c(c2)oc(=O)n3C)CC1 | 20 µM [falling, single point]
25 | COc1cc(-c2nnc(SCC(=O)OC3CCCCC3)o2)cc(OC)c1OC | 25.1 µM [falling, single point]
26 | CCC(CO)Nc1ncnc2c1cnn2-c1ccc(C)cc1 (configuration not stated) | 12.6 µM [falling, partial curve]
27 | CCOCCCn1c(SCC(=O)Nc2cccc(OC)c2)nc2ccccc2c1=O | 39.8 µM [falling, single point]
28 | O=C(NCc1ccc2c(c1)OCO2)c1ccc2c(c1)N(Cc1ccc(F)cc1)C(=O)c1ccccc1S2=O (configuration not stated) | 1 µM [falling, partial curve]
29 | CCOCCc1nn2c(=O)cc(COC(=O)c3cccs3)nc2s1 | 10 µM [falling, partial curve]
30 | Cc1cccc(CN2C(=O)CC(c3ccc(Cl)cc3)c3c(C)nn(-c4nc(C)cc(C)n4)c32)c1 (configuration not stated) | 15.8 µM [falling, partial curve]
31 | COc1ccccc1N(CC(=O)Nc1ccccc1F)S(C)(=O)=O | 0.0316 µM [falling, full curve, poor fit]
32 | CCc1ccc(NC(=O)C(CC)n2nnc(C(=O)OC)c2C(=O)OC)cc1 (configuration not stated) | 3.16 µM [rising, single point]
33 | CCCNc1nc(NCc2ccccc2OC)c2cnn(C)c2n1 | 3.98 µM [falling, partial curve, poor fit]
34 | CCN(CCCNC(=O)c1cc2c(=O)[nH]c3ccc(C)cc3c2s1)c1ccc(C)cc1 | 0.1 µM [rising, full curve, poor fit]
35 | Cn1c(/C(C#N)=C(\O)COc2ccc3ccccc3c2)nc2ccccc21 | 0.501 µM [rising, full curve]
36 | COc1ccc(NC(=O)C2=CC(c3ccc4c(c3)OCO4)=NS(=O)(=O)N2C)cc1 | 20 µM [falling, single point]
37 | Fc1ccc(-n2cc(-c3ccccc3)c3c(NCCc4ccccc4)ncnc32)cc1 | 31.6 µM [falling, single point]
38 | COc1cccc(CNC(=O)c2oc3c(c2C)-c2nn(Cc4cccc(Cl)c4)cc2CC3)c1 | 25.1 µM [falling, single point]
39 | CCOC(=O)N1CCC(n2c(SCC(=O)NCCC3=CCCCC3)nc3ccccc3c2=O)CC1 | 10 µM [falling, partial curve]
40 | Cc1[nH]n(-c2ccccc2)c(=O)c1-c1ccccc1 | 10 µM [falling, partial curve]
41 | C/C(=C\C(=O)c1ccc(C)cc1)Nc1cccc(O)c1 | 10 µM [falling, partial curve]
42 | COc1ccc(-c2nnc(COc3ccc4ccccc4c3)o2)cc1OC | 6.31 µM [falling, partial curve]

Row | Compound | AC50
43 | CCOc1ccccc1CNC(=O)C1CCN(c2nc3ccccc3o2)CC1 | 3.98 µM [falling, partial curve]
44 | Cn1c(=O)cc(OCC(=O)NCCCN2CCN(Cc3ccccc3)CC2)c2ccccc21 | 25.1 µM [rising, partial curve] [measured here: IkB-luc green channel]
45 | c1cncc(-c2nc(NCc3ccco3)c3ccccc3n2)c1 | 10 µM [falling, partial curve]
46 | COc1cccc(C(=O)NCc2cn3ccccc3n2)c1 | 12.6 µM [falling, partial curve]
47 | O=C(CSc1nnc(-c2ccccc2)c(-c2ccccc2)n1)NC1CCCC1 | 31.6 µM [falling, partial curve]
48 | CCOc1ccc(C(=O)c2cn(CC(=O)Nc3ccc(F)cc3)c3cc4c(cc3c2=O)OCCO4)cc1 | 6.31 µM [falling, partial curve]
49 | C(=C\c1ccccc1)/CN1CCN(c2ncnc3c2oc2ccccc23)CC1 | 0.0794 µM [falling, full curve]
50 | CCN(Cc1ccccc1)C(=O)CCc1c(C)nc2c(c(C)nn2-c2ccc(C)c(C)c2)c1C | 25.1 µM [falling, single point]
51 | Cc1ccc(NC(=O)c2oc3ccc(S(=O)(=O)N4CCCCC4)cc3c2C)cc1Cl | 6.31 µM [falling, partial curve]
52 | CCc1cccc(C)c1NC(=O)Cn1cc2c(n1)CCCC2 | 25.1 µM [falling, single point]
53 | Cn1c(=O)c2c(-c3ccc(Br)cc3)n(CCc3ccccc3)cc2n(C)c1=O | 31.6 µM [falling, single point]
54 | CCc1cc2cc3c(cc2nc1SCC(=O)N1CCN(C(=O)c2ccco2)CC1)OCO3 | 15.8 µM [falling, partial curve]
55 | Cc1ccc(C(C)C)c(OCC(=O)Nc2ccccc2N2CCN(C)CC2)c1 | 15.8 µM [falling, partial curve]
56 | Cc1ccccc1C(=O)Nc1nc2nc(-c3ccccc3)cc(=O)n2[nH]1 | 20 µM [falling, single point]
57 | Clc1cccc(-n2cc(-c3ccccc3)c3c(N4CCCCC4)ncnc32)c1 | 39.8 µM [falling, single point]
58 | CCC(c1nnnn1Cc1ccc2c(c1)OCO2)N1CCN(c2ccccc2)CC1 (configuration not stated) | 31.6 µM [falling, single point]
59 | CCOc1cc(C(=O)NCCc2csc3nc(-c4ccccc4F)nn23)cc(OCC)c1OCC | 12.6 µM [falling, partial curve, poor fit]
60 | COc1ccc(Cn2c(C(=O)O)c(CNCCc3ccco3)c3ccc(C)cc32)cc1 | 10 µM [falling, partial curve]
61 | O=C(CN1C(=O)CCn2nc(-c3ccccc3)cc21)NCc1ccc(F)cc1 | 25.1 µM [falling, partial curve]
62 | CCCc1[nH][nH]c(=O)c1C(c1cccc(Cl)c1)C(C#N)C#N (configuration not stated) | 31.6 µM [rising, single point] [measured here: IkB-luc green channel]
